The test system of this assay is primary human hepatic stellate cells (donor 1). Put plainly: percent Bodipy-positive cells; higher = more lipid droplet accumulation. The settings on record: 48 h.
Setting [1] is: library stock concentration: 3.33 mM.
The mark [2] stands for this setting: library stock concentration: 10 mM.
Setting [3] is: library stock concentration: 80 uM.
The mark [4] stands for this setting: library stock concentration: 400 uM.
The mark [5] stands for this setting: library stock concentration: 2 mM.
Where [6] appears, read: library stock concentration: 1 mM.

The text below walks through data of the supplement of paper PMC9135407.

Where “and” joins values, the source holds several entries; their conditions need not be identical. Identical values can stand only once. Counter-ions that a name gives are not always drawn. ± gives the standard deviation of the averaged measurements. The list shows a part of the results. Part of the spread comes from offsets between plates or batches.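 Primary human stellate myofibroblasts activated in culture; inactivation shown by regained lipid droplets. Readout: fraction of Hoechst-counted cells exceeding a per-plate Bodipy threshold, duplicate wells, each plate with DMSO negative and nortriptyline positive controls. Hits: control-normalized score beyond the plate's top-tenth-percentile nortriptyline wells, or among its three best wells. Final well concentrations unstated.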

As for `O=C(O)CCCCC(CCSCc1ccccc1)SCc1ccccc1` (stereo unspecified), the “percent Bodipy-positive cells” value came to 4.88 ± 1.8% under setting [1] and 18.1 ± 5.3% under setting [2].
Regarding `C[C@H]1O[C@@H](n2cc(F)c(=O)[nH]c2=O)[C@H](O)[C@@H]1O` [Doxifluridine], the “percent Bodipy-positive cells” value by setting is: under setting [1], 11.7 ± 3%; (library stock concentration: 8.1 mM) 5.9 ± 0.37%; under setting [2], 13.76 ± 0.1%.
Turning to `C[C@H]1O[C@@H](n2cc(F)c(=O)[nH]c2=O)[C@H](O)[C@@H]1O` [5-fluoro-5'-deoxyuridine], under setting [2], the “percent Bodipy-positive cells” value was found to be 33.4 ± 8.4%.
Turning to `CC(=O)N(OCc1ccccc1)[C@H]1c2cc(C#N)ccc2OC(C)(C)[C@H]1O`, the “percent Bodipy-positive cells” value under setting [2] was 7.62 ± 2.9%.
Consider `CC(C)(C)c1nc(-c2cccc(NS(=O)(=O)c3c(F)cccc3F)c2F)c(-c2ccnc(N)n2)s1` [Dabrafenib], for which the “percent Bodipy-positive cells” value runs as follows: under setting [3], 7.67 ± 2.3%; under setting [4], 9.14 ± 5.8%; under setting [5], 9.77 ± 3.4%; under setting [2], 11.7 ± 1.5%.
As for `CC(C)(C)c1nc(-c2cccc(NS(=O)(=O)c3c(F)cccc3F)c2F)c(-c2ccnc(N)n2)s1`, the “percent Bodipy-positive cells” value by setting is: under setting [1], 10.3 ± 7.6%; under setting [2], 11.7 ± 1.8%.
Consider `Clc1ccc(C(c2ccc(Cl)cc2)[n+]2ccn(CC(OCc3ccc(Cl)cc3Cl)c3ccc(Cl)cc3Cl)c2)cc1` (stereo unspecified) [Calmidazolium chloride], for which the “percent Bodipy-positive cells” value under setting [2] amounted to 100%.
As to `Cc1c(C(=O)Nc2ccc(N3CCC(N4CCOCC4)CC3)c(C#N)c2)cnn1-c1ccc(Cl)cc1`, the “percent Bodipy-positive cells” value was 100% under setting [1] and 100% under setting [2].
As for `OCC1OC(n2cnc3c(NC4CCCC4)nc(Cl)nc32)C(O)C1O` (stereo unspecified) [2-Chloro-N6-cyclopentyladenosine], the “percent Bodipy-positive cells” value under setting [2] stood at 11%.
Take `N[C@@H](Cc1cc(CP(=O)(O)O)cc(-c2ccccc2Cl)c1)C(=O)O`: the “percent Bodipy-positive cells” value under setting [2] worked out at 6.76 ± 2.2%.
On to `CCCCC/C=C\C/C=C\CC/C=C\CCCC(=O)OCC` [Pinolenic Acid ethyl ester], for which, under setting [6], the “percent Bodipy-positive cells” value came out at 9.81 ± 3%.
For `Nc1ccc(C(=O)O)cc1` [Potassium p-aminobenzoate], the “percent Bodipy-positive cells” value under setting [2] came out at 9.56 ± 2.2%.
Take `O=C(O)C1=CO[C@@H](O[C@@H]2O[C@H](CO)[C@@H](O)[C@H](O)[C@H]2O)[C@@H]2C(CO)=CC[C@H]12` [Geniposidic acid]: the “percent Bodipy-positive cells” value runs as follows: under setting [1], 5.81 ± 1.1%; under setting [2], 10.3 ± 1.3%.
For the compound `CCN1CCCC(OC(=O)C(c2ccccc2)c2ccccc2)C1` (stereo unspecified) [Piperidolate hydrochloride], the “percent Bodipy-positive cells” value came to 26.1 ± 4%. Further, the “percent Bodipy-positive cells” value under setting [2] amounted to 58.6 ± 8.7%.
In the case of `CC(C)c1ccc2c(c1)CC[C@H]1[C@](C)(CN)CCC[C@]21C` [Lylamine hydrochloride], the “percent Bodipy-positive cells” value under setting [2] came out at 91.29 ± 0.54%.
Turning to `CC(=O)NC(CC(=O)O)C(=O)O` (racemic) [Aspartic acid, N-acetyl (R,S)], the “percent Bodipy-positive cells” value is 17.2 ± 0.52%.
`COc1c(C)c2c(c(O)c1C/C=C(\C)CCC(=O)O)C(=O)OC2` [Mycophenolic acid]: the “percent Bodipy-positive cells” value is 19 ± 8.5%. The “percent Bodipy-positive cells” value under setting [1] was 7.91 ± 2.7%. In addition, the “percent Bodipy-positive cells” value (library stock concentration: 6.2 mM) is 5.09% and 16.6%. The “percent Bodipy-positive cells” value under setting [2] is 17.4% and 20.4% and 4.96%. Also, under “library stock concentration: 15.6 mM”, the “percent Bodipy-positive cells” value stood at 13.5 ± 3.3%.
Turning to `O=C(O)c1ccc(S(=O)(=O)N(Cl)Cl)cc1` [Halazone], the “percent Bodipy-positive cells” value under setting [2] is 13.2 ± 1.6%.
As to `O=C1OC(O)C(c2cc3ccccc3s2)=C1Br` (stereo unspecified), the “percent Bodipy-positive cells” value under setting [6] stood at 15.6 ± 4.1%.
As to `O=C(Oc1ccccc1C(=O)O)c1ccccc1O` [Sasapyrine], the “percent Bodipy-positive cells” value by setting is: under setting [1], 7.83 ± 1.9%; under setting [2], 28.4 ± 8.3%.
For the compound `O=C(Oc1ccccc1C(=O)O)c1ccccc1O` [Salsalate], the “percent Bodipy-positive cells” value (library stock concentration: 7.7 mM) turned out to be 2.67 ± 0.4%.
For the compound `CCCCCNC(=N)N/N=C/c1c[nH]c2ccc(OC)cc12` [Tegaserod maleate], the “percent Bodipy-positive cells” value under setting [2] turned out to be 35.6 ± 2.8%.
With `CCCCCNC(=N)N/N=C/c1c[nH]c2ccc(OC)cc12`, the “percent Bodipy-positive cells” value under setting [2] was 87.5 ± 4.1%.
Still for that read-out and setting: then `CCCCCNC(=N)N/N=C/c1c[nH]c2ccc(OC)cc12` [Tegaserod], with 38.4 ± 4.4%.
In the case of `CS(=O)(=O)c1ccc(-c2cnc(N)c(C(=O)Nc3ccccc3)n2)cc1`, the “percent Bodipy-positive cells” value stood at 5.08 ± 0.77% under setting [3]; 6.11 ± 3.1% under setting [4]; 5.73 ± 1.2% under setting [5]; 59.9 ± 14% under setting [1]; 35.24 ± 0.32% under setting [2].
For `CCOC(=O)C1=C(N)Oc2ccc(Br)cc2[C@H]1[C@H](C#N)C(=O)OCC`, the “percent Bodipy-positive cells” value under setting [2] was determined as 100%.
For `NS(=O)(=O)c1cc(Cl)c(Cl)c(S(N)(=O)=O)c1` [Dichlorphenamide], the “percent Bodipy-positive cells” value worked out at 6.47 ± 2.8%. The “percent Bodipy-positive cells” value under setting [1] came out at 13.5 ± 1.6%. In addition, the “percent Bodipy-positive cells” value under setting [2] is 16.2 ± 1.7%.
For `C/C(=C\C(=O)Nc1ccccc1C(=O)O)c1ccc2ccccc2c1`, the “percent Bodipy-positive cells” value is, setting by setting: under setting [1], 7.25 ± 0.69%; under setting [2], 11.7 ± 0.02%.
For `O=C(c1ccc(/C=C/c2n[nH]c3ccccc23)cc1)N1CCNCC1`, the “percent Bodipy-positive cells” value reads like this: under setting [3], 9.54 ± 0.89%; under setting [4], 9.1 ± 7%; under setting [5], 12.7 ± 1.6%; under setting [1], 31.9 ± 2.8%; under setting [2], 94.7 ± 2.8%.
`Cc1cc(Cl)ccc1OCCCC(=O)NO` [Droxinostat]: the “percent Bodipy-positive cells” value was 6.27 ± 3.7% under setting [1]; 26.4% and 22% under setting [2].
With `O=C(NCCN1CCOCC1)c1ccc(Cl)cc1` [4-Chloro-N-(2-morpholin-4-yl-ethyl)-benzamide], under setting [2], the “percent Bodipy-positive cells” value came out at 12.9 ± 9.2%.
Take `O=C(NCCN1CCOCC1)c1ccc(Cl)cc1` [Moclobemide]: the “percent Bodipy-positive cells” value was 22.3 ± 1.1%. Also, the “percent Bodipy-positive cells” value under setting [2] amounted to 27.7 ± 2.9%.
Turning to `O=C(NCCN1CCOCC1)c1ccc(Cl)cc1`, the “percent Bodipy-positive cells” value turned out to be 28.2 ± 12% under setting [1] and 11 ± 2.6% under setting [2].
Consider `CNC(=O)c1ccc(Nc2cc(Nc3ccccc3S(=O)(=O)C(C)C)c3cc[nH]c3n2)nc1`, for which the “percent Bodipy-positive cells” value reads like this: under setting [3], 16.7 ± 1.8%; under setting [4], 8.34 ± 0.68%; under setting [5], 5.61 ± 2%; under setting [2], 11.7 ± 0.51%.
